The source of these data is paper doi:10.1101/2022.06.14.496170.

Protein sequences, listed by entry. Tags and fused reporters are not part of them. Lines headed by an entry give the natural chain unless they say otherwise; changes in a name come on top. Chains listed by the source or under a name are the forms on record and can include a tag or linker.
PICLN (Arabidopsis thaliana) (Q9LVA7, form named): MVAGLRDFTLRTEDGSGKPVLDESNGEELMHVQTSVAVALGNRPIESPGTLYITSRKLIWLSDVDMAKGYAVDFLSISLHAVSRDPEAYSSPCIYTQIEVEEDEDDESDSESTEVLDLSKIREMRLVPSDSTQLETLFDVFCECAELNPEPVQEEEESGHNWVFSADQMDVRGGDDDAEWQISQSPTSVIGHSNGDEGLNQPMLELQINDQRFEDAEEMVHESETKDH
UniProt Q9SSF1: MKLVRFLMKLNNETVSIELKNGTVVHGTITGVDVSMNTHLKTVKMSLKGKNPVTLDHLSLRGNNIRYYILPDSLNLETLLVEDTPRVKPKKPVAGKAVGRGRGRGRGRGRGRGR

Results are given in words; binding and its absence hold for the method and conditions named. Some binding calls cover weakened binding; strength is not graded here.

The experiment deals with PICLN (Arabidopsis thaliana) (Arabidopsis thaliana) (UniProt Q9LVA7). Briefly: two-hybrid.

In the case of “SmD1A (Arabidopsis thaliana) (from UniProt Q9SSF1 1-114)”, the binding entry is “binds”.

B1: SmD3B (Arabidopsis thaliana) (protein, UniProt Q9LM92 1-131)
chain: MSRSLGIPVKLLHEASGHIVTVELKSGELYRGSMIECEDNWNCQLEDITYTAKDGKVSQLEHVFIRGSKVRFMVIPDILKHAPMFKRLDARIKGKSSSLGVGRGRGAMRGKPAAGPGRGTGGRGAVPPVRR
B1: the binding entry was “binds”.
